At least one structure is not confirmed: it was looked up by name or label, or the drawing left a doubt.
Test system: MDSC suppressive genes (ARG1, NCF1, NCF4, CYBB) in CD15+ cells
Test: qRT-PCR of MDSC suppressive genes in CD15+ cells isolated from APCCs
Assay type: cell-based, human
Conditions: inferred from suppressive gene expression in CD15+ cells, combination with anti-PD1; Cabozantinib 10 μM

Compound: COc1cc2nccc(Oc3ccc(NC(=O)C4(C(=O)Nc5ccc(F)cc5)CC4)cc3)c2cc1OC [Cabozantinib]
- MDSCs' suppressive function: effectively inhibited

From patent publication US20240425808A1, “A METHOD FOR RAPID GENERATION OF 3D ORGANOTYPIC CELL CLUSTERS” (THE TRUSTEES OF INDIANA UNIVERSITY, priority 2022, published 2024)
